Positions count from the first letter of the chain named. These are yes or no findings as the source states them, for the method shown. In cells and extracts the contact can be indirect. Some results given as binding are weak or reduced against the parent protein; the word gives no strength. For some assays here: Sequences can lack the tags named with a protein.
Key:
Assay in all cases: FRET or BRET
RlucII-CLN3 = target: T1, RlucII-CLN3 (UniProt Q13286)
T1 sequence: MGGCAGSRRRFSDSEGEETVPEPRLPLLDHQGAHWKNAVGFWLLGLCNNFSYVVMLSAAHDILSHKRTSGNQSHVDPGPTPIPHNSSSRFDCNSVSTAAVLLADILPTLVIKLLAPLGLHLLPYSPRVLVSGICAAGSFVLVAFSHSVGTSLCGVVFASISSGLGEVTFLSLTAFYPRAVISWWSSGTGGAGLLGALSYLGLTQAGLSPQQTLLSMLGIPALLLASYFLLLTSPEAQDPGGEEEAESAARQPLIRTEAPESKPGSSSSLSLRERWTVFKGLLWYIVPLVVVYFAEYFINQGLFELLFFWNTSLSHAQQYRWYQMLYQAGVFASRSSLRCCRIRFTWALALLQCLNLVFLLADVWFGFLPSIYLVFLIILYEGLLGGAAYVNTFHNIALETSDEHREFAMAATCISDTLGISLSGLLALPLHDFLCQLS

RlucII-CLN3^E295K = target: T2, RlucII-CLN3^E295K (UniProt Q13286)
T2 sequence: T1 sequence with E295K

RlucII-CLN3^L101P = target: T3, RlucII-CLN3^L101P (UniProt Q13286)
T3 sequence: T1 sequence with L101P

RlucII-CLN3^R334H = target: T4, RlucII-CLN3^R334H (UniProt Q13286)
T4 sequence: T1 sequence with R334H

RlucII-CLN3^V330F = target: T5, RlucII-CLN3^V330F (UniProt Q13286)
T5 sequence: T1 sequence with V330F

Vps26A-nLuc = Vps26A-nLuc (UniProt O75436)

Measured: binding

Vps26A-GFP10 (from UniProt O75436 1-327)
not listed: Vps26A-nLuc
binds: all other assays above

sortilin-YFP (from UniProt Q99523 78-831) (receptor)
binds: all assays above

Source: publication doi:10.1101/634915
